According to publication PMC9492735:
No constants are given. Whether binding was seen depends on the method and setting. In cells and extracts the contact can be indirect. Here binding means that the protein was enriched with, or labelled near, the bait; the list need not be complete. Sequences can lack the tags named with a protein.

Target: T1, VIVIPAROUS1/ABI3-LIKE (VAL1), HA-tagged (VAL1-HA) (Arabidopsis thaliana) (UniProt Q8W4L5)
T1 sequence: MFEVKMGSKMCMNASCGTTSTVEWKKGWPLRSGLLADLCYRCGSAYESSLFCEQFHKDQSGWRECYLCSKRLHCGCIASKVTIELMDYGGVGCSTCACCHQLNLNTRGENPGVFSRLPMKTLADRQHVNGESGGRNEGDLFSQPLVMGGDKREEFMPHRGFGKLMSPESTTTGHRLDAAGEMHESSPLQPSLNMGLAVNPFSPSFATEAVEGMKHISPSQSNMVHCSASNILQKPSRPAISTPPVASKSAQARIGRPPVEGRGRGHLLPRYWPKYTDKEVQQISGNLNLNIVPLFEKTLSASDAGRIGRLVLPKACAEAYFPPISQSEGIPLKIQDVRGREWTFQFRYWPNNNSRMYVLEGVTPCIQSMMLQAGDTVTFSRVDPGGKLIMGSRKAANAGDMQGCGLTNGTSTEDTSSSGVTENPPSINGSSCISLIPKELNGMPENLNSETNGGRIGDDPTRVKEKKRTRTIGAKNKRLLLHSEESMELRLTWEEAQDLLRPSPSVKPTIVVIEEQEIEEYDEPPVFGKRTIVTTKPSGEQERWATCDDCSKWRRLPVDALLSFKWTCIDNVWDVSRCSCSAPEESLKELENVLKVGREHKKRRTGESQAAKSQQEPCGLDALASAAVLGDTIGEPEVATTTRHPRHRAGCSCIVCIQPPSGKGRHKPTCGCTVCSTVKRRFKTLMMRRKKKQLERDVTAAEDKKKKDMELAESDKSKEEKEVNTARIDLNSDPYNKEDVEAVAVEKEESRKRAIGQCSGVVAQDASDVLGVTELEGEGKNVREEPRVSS
Assay: affinity purification with mass spectrometry; VAL1-HA as bait; crosslinked Arabidopsis seedlings (non-vernalized, 4 weeks cold, 4 weeks cold plus 7 days warm); Protein A beads coupled with HA antibody; in-gel digestion, nanoLC-MS/MS; compared with Col-HA negative controls

Binder	binding
BMI1A (protein, UniProt Q94AY3 1-420) MEGDMVAKVKRETVVACMTCPLCDKLLRDATTISECLHTFCRKCIYEKITEDEIESCPVCDIDLGGTPLEKLRPDHILQDLRAKLFPLKRKKERAPEVVSSISLPAKRKERSISSLVVSTPRVSAQAGTTGKRTKAATRKDVRGSGSFTKRTVKKEEEFGDDHVESASSPETLKKFTQNKRQSSYANPNQSLSNRRNKDVDEPWDSKLHLWKPLNFLVDVANGTKDPKSELGNASHNDVQGSKTKTKDHKRKCKLEEEISNNGDPTTSETATLKRTRRTRRKRSSTFGDSRIPLLPGAASLKQERRNGHVWFSLVASSNQEGEASLPQIPANYLRIRDGNIPVSFIQKYLMRKLDLKSEDEVEITCMGEPVIPTLQLHSLVDLWLETTSKHQRVAASIGSSAKEFVMVLVYSRKLPECNN	binds
BMI1B (protein, UniProt Q9M9Y4 1-421) MMIKVKKETMRACLSCSICDNILRDATTISECLHTFCRKCIYEKITEDEIETCPVCNIDLGSTPLEKLRPDHNLQDLRAKIFALKRRKVKAPGIVSLPGKRKERSISSLVVSTPMVSAQAGTTRRRTKAPTRKELRNGSLAERTVKKEESSGDELLESTSSPDTLNKFTQNKRQSKKSCKESISNKENKDGDEPWDSKMDWKPLNFLVEVANGTKPLKSSASQGSGSKSEHANVSRNQFQGSKTKTKNKKRKCKREDDKSNNGDPTTSETVTPKRMRTTQRKRSATTLGDSRNLPQPDESSAKQERRNGPVWFSLVASNDQEGGTSLPQIPANFLRIRDGNTTVSFIQKYLMRKLDLESENEIEIKCMGEAVIPTLTLYNLVDLWLQKSSNHQRFAALVGSSAKDFTMVLVYARKLPECNM	binds
RING1A (protein, UniProt Q9FKW0 1-522) MSVKNNSFSSAEIPDVADQPRDRFNPEATQDLQEKDETKEEKEGDEEVKHDEAEEDQEVVKPNDAEEDDDGDDAEEDEEEEVEAEEDEEAEEEEEEEEEEEEEEEDSKERSPSSISGDQSEFMEIDLGEIRKDVQCPICLGIIKKTRTVMECLHRFCRECIDKSMRLGNNECPACRKHCASRRSLRDDPKFDALIAALFTNIDSYEEEELAFHEDEMARNKQIQASIAQISQRQSEALVKRRSLGKEAAVLMRSPRIASGSRRRRNSRNMEQQNASEAHEDDDNDDNNNRGRDKDSSSDERGTEVRQKKRRKRSTSRSTQHPSSSGANKNNGNCADNDTEVYRDTKGISPGLVWNPEILAWGRGGTRSNTRHGNNTSGGSSKSVRNARVNKLVEYLRSSVDGSSVELDIHVKLVSLDTKCIPDLPQPYLCCRPTLLVKQLREFVALQIHLKTEEVELLVTRRRVGEDAAIENLPAVTPASAAASKDEMLSLEDNETLSRLKIDFISSHEQHLIIAYRKKQTE	binds
